In the supplement of paper PMC10382679:
Single values of this set are uncertain.

B1: Rpb7; numbered along this chain (parent)
chain: MFFIKDLSLNITLHPSFFGPRMKQYLKTKLLEEVEGSCTGKFGYILCVLDYDNIDIQRGRILPTDGSAEFNVKYRAVVFKPFKGEVVDGTVVSCSQHGFEVQVGPMKVFVTKHLMPQDLTFNAGSNPPSYQSSEDVITIKSRIRVKIEGCISQVSSIHAIGSIKEDYLGAI

Key:
[1] = variants of: B1; experiment: log2 fold change of mutant abundance, UV-irradiated vs unirradiated; higher = more UV resistant (enriched after UV); details: with Saccharomyces cerevisiae rad7Δ rad26Δ; UV dose (J/m2): 10; genetic background: rad7Δ rad26Δ rpb7Δ + plasmid RPB7 library; outgrowth: 10 cell divisions
[2] = variants of: B1; experiment: NOISeq theta enrichment statistic, UV-irradiated vs unirradiated (dimensionless); higher = more UV resistant (enriched after UV); details: with Saccharomyces cerevisiae rad7Δ rad26Δ; UV dose (J/m2): 10; genetic background: rad7Δ rad26Δ rpb7Δ + plasmid RPB7 library; outgrowth: 10 cell divisions

Variant: MFFIKDLSLNITLHPSFFGPRMKQYLKTKLLEEVEGSCTGKFGYILCVLDYDNIDIQRGRILPTDGSAEFNVKYRAVVFKPFKGEVVDGTVVSASQHGFEVQVGPMKVFVTKHLMPQDLTFNAGSNPPSYQSSEDVITIKSRIRVKIEGCISQVSSIHAIGSIKEDYLGAI [C94A]
- log2 fold change of mutant abundance [1]: 0.163
- NOISeq theta enrichment statistic [2]: 0.129

Variant: MFFIKDLSLNITLHPSFFGPRMKQYLKTKLLEEVEGSCTGKFGYILCVLDYDNIDIQRGRILPTDGSAEFNVKYRAVVFKPFKGEVVDGTVVSDSQHGFEVQVGPMKVFVTKHLMPQDLTFNAGSNPPSYQSSEDVITIKSRIRVKIEGCISQVSSIHAIGSIKEDYLGAI [C94D]
- log2 fold change of mutant abundance [1]: -0.11
- NOISeq theta enrichment statistic [2]: -0.095

Variant: MFFIKDLSLNITLHPSFFGPRMKQYLKTKLLEEVEGSCTGKFGYILCVLDYDNIDIQRGRILPTDGSAEFNVKYRAVVFKPFKGEVVDGTVVSFSQHGFEVQVGPMKVFVTKHLMPQDLTFNAGSNPPSYQSSEDVITIKSRIRVKIEGCISQVSSIHAIGSIKEDYLGAI [C94F]
- log2 fold change of mutant abundance [1]: 0.00321
- NOISeq theta enrichment statistic [2]: 0.0158

Variant: MFFIKDLSLNITLHPSFFGPRMKQYLKTKLLEEVEGSCTGKFGYILCVLDYDNIDIQRGRILPTDGSAEFNVKYRAVVFKPFKGEVVDGTVVSGSQHGFEVQVGPMKVFVTKHLMPQDLTFNAGSNPPSYQSSEDVITIKSRIRVKIEGCISQVSSIHAIGSIKEDYLGAI [C94G]
- log2 fold change of mutant abundance [1]: -0.0856
- NOISeq theta enrichment statistic [2]: -0.361

Variant: MFFIKDLSLNITLHPSFFGPRMKQYLKTKLLEEVEGSCTGKFGYILCVLDYDNIDIQRGRILPTDGSAEFNVKYRAVVFKPFKGEVVDGTVVSHSQHGFEVQVGPMKVFVTKHLMPQDLTFNAGSNPPSYQSSEDVITIKSRIRVKIEGCISQVSSIHAIGSIKEDYLGAI [C94H]
- log2 fold change of mutant abundance [1]: 0.147
- NOISeq theta enrichment statistic [2]: 0.109

Variant: MFFIKDLSLNITLHPSFFGPRMKQYLKTKLLEEVEGSCTGKFGYILCVLDYDNIDIQRGRILPTDGSAEFNVKYRAVVFKPFKGEVVDGTVVSISQHGFEVQVGPMKVFVTKHLMPQDLTFNAGSNPPSYQSSEDVITIKSRIRVKIEGCISQVSSIHAIGSIKEDYLGAI [C94I]
- log2 fold change of mutant abundance [1]: 0.0557
- NOISeq theta enrichment statistic [2]: 0.0607

Variant: MFFIKDLSLNITLHPSFFGPRMKQYLKTKLLEEVEGSCTGKFGYILCVLDYDNIDIQRGRILPTDGSAEFNVKYRAVVFKPFKGEVVDGTVVSLSQHGFEVQVGPMKVFVTKHLMPQDLTFNAGSNPPSYQSSEDVITIKSRIRVKIEGCISQVSSIHAIGSIKEDYLGAI [C94L]
- log2 fold change of mutant abundance [1]: 0.107
- NOISeq theta enrichment statistic [2]: 0.138

Variant: MFFIKDLSLNITLHPSFFGPRMKQYLKTKLLEEVEGSCTGKFGYILCVLDYDNIDIQRGRILPTDGSAEFNVKYRAVVFKPFKGEVVDGTVVSMSQHGFEVQVGPMKVFVTKHLMPQDLTFNAGSNPPSYQSSEDVITIKSRIRVKIEGCISQVSSIHAIGSIKEDYLGAI [C94M]
- log2 fold change of mutant abundance [1]: 0.0367
- NOISeq theta enrichment statistic [2]: 0.0207

Variant: MFFIKDLSLNITLHPSFFGPRMKQYLKTKLLEEVEGSCTGKFGYILCVLDYDNIDIQRGRILPTDGSAEFNVKYRAVVFKPFKGEVVDGTVVSNSQHGFEVQVGPMKVFVTKHLMPQDLTFNAGSNPPSYQSSEDVITIKSRIRVKIEGCISQVSSIHAIGSIKEDYLGAI [C94N]
- log2 fold change of mutant abundance [1]: 0.25
- NOISeq theta enrichment statistic [2]: 0.153

Variant: MFFIKDLSLNITLHPSFFGPRMKQYLKTKLLEEVEGSCTGKFGYILCVLDYDNIDIQRGRILPTDGSAEFNVKYRAVVFKPFKGEVVDGTVVSRSQHGFEVQVGPMKVFVTKHLMPQDLTFNAGSNPPSYQSSEDVITIKSRIRVKIEGCISQVSSIHAIGSIKEDYLGAI [C94R]
- log2 fold change of mutant abundance [1]: -0.299
- NOISeq theta enrichment statistic [2]: -0.557

Variant: MFFIKDLSLNITLHPSFFGPRMKQYLKTKLLEEVEGSCTGKFGYILCVLDYDNIDIQRGRILPTDGSAEFNVKYRAVVFKPFKGEVVDGTVVSSSQHGFEVQVGPMKVFVTKHLMPQDLTFNAGSNPPSYQSSEDVITIKSRIRVKIEGCISQVSSIHAIGSIKEDYLGAI [C94S]
- log2 fold change of mutant abundance [1]: -0.0804
- NOISeq theta enrichment statistic [2]: -0.388

Variant: MFFIKDLSLNITLHPSFFGPRMKQYLKTKLLEEVEGSCTGKFGYILCVLDYDNIDIQRGRILPTDGSAEFNVKYRAVVFKPFKGEVVDGTVVSTSQHGFEVQVGPMKVFVTKHLMPQDLTFNAGSNPPSYQSSEDVITIKSRIRVKIEGCISQVSSIHAIGSIKEDYLGAI [C94T]
- log2 fold change of mutant abundance [1]: 0.207
- NOISeq theta enrichment statistic [2]: 0.143

Variant: MFFIKDLSLNITLHPSFFGPRMKQYLKTKLLEEVEGSCTGKFGYILCVLDYDNIDIQRGRILPTDGSAEFNVKYRAVVFKPFKGEVVDGTVVSVSQHGFEVQVGPMKVFVTKHLMPQDLTFNAGSNPPSYQSSEDVITIKSRIRVKIEGCISQVSSIHAIGSIKEDYLGAI [C94V]
- log2 fold change of mutant abundance [1]: -0.0244
- NOISeq theta enrichment statistic [2]: -0.0509

Variant: MFFIKDLSLNITLHPSFFGPRMKQYLKTKLLEEVEGSCTGKFGYILCVLDYDNIDIQRGRILPTDGSAEFNVKYRAVVFKPFKGEVVDGTVVSWSQHGFEVQVGPMKVFVTKHLMPQDLTFNAGSNPPSYQSSEDVITIKSRIRVKIEGCISQVSSIHAIGSIKEDYLGAI [C94W]
- log2 fold change of mutant abundance [1]: -0.0816
- NOISeq theta enrichment statistic [2]: -0.177

Variant: MFFIKDLSLNITLHPSFFGPRMKQYLKTKLLEEVEGSCTGKFGYILCVLDYDNIDIQRGRILPTDGSAEFNVKYRAVVFKPFKGEVVDGTVVSYSQHGFEVQVGPMKVFVTKHLMPQDLTFNAGSNPPSYQSSEDVITIKSRIRVKIEGCISQVSSIHAIGSIKEDYLGAI [C94Y]
- log2 fold change of mutant abundance [1]: 0.0215
- NOISeq theta enrichment statistic [2]: 0.0522

Variant: MFFIKDLSLNITLHPSFFGPRMKQYLKTKLLEEVEGSCTGKFGYILCVLDYDNIDIQRGRILPTDGSAEFNVKYRAVVFKPFKGEVVDGTVVSCAQHGFEVQVGPMKVFVTKHLMPQDLTFNAGSNPPSYQSSEDVITIKSRIRVKIEGCISQVSSIHAIGSIKEDYLGAI [S95A]
- log2 fold change of mutant abundance [1]: 0.0241
- NOISeq theta enrichment statistic [2]: 0.0385

Variant: MFFIKDLSLNITLHPSFFGPRMKQYLKTKLLEEVEGSCTGKFGYILCVLDYDNIDIQRGRILPTDGSAEFNVKYRAVVFKPFKGEVVDGTVVSCCQHGFEVQVGPMKVFVTKHLMPQDLTFNAGSNPPSYQSSEDVITIKSRIRVKIEGCISQVSSIHAIGSIKEDYLGAI [S95C]
- log2 fold change of mutant abundance [1]: -0.029
- NOISeq theta enrichment statistic [2]: -0.0959
